In PMC6588571:
Results are given in words; binding and its absence hold for the method and conditions named. For some assays here: In cells and extracts the contact can be indirect. Some results given as binding are weak or reduced against the parent protein; the word gives no strength. Tags and fused reporters may be left off the sequences shown.

Key:
[1] = molecular target: T1, Hrr25(1–394).K38R fused to the Gal4 DNA-binding domain (S. cerevisiae) (UniProt P29295); experiment: two-hybrid; baits fused to the GAL4 DNA-binding domain, preys fused to the GAL4 activation domain, co-transformed into reporter strain PJ69-4A; ten-fold serial dilutions spotted on SDC-Trp-Leu, SDC-Trp-Leu-His (growth: weak interaction) and SDC-Trp-Leu-Ade (growth: strong interaction)
T1 sequence: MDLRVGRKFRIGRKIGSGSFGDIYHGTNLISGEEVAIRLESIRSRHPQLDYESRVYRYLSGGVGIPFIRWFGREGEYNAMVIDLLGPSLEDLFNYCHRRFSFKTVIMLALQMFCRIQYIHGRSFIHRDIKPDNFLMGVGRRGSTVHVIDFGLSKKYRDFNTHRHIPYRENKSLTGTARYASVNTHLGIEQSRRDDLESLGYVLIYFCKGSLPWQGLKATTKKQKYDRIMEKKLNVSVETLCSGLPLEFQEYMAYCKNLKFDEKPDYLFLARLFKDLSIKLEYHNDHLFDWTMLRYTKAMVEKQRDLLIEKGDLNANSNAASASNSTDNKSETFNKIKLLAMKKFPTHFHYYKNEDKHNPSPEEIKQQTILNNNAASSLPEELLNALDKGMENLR

[2] = molecular target: T2, C-terminally TAP-tagged Tsr1 (S. cerevisiae) (UniProt Q07381); experiment: co-IP; Tsr1-TAP pre-40S particles from yeast lysate bound to IgG beads, eluted with TEV protease, western blotting; wild-type, rps20Δloop, rio2.D253A and ltv1 phosphomutant strains; in the ATP assays the bound particles were incubated with or without 1 mM ATP for 30 min at 4 °C (50 mM TRIS pH 7.5, 100 mM NaCl, 5 mM MgCl2, 0.075% NP-40, 1 mM DTT) and washed before elution
T2 sequence: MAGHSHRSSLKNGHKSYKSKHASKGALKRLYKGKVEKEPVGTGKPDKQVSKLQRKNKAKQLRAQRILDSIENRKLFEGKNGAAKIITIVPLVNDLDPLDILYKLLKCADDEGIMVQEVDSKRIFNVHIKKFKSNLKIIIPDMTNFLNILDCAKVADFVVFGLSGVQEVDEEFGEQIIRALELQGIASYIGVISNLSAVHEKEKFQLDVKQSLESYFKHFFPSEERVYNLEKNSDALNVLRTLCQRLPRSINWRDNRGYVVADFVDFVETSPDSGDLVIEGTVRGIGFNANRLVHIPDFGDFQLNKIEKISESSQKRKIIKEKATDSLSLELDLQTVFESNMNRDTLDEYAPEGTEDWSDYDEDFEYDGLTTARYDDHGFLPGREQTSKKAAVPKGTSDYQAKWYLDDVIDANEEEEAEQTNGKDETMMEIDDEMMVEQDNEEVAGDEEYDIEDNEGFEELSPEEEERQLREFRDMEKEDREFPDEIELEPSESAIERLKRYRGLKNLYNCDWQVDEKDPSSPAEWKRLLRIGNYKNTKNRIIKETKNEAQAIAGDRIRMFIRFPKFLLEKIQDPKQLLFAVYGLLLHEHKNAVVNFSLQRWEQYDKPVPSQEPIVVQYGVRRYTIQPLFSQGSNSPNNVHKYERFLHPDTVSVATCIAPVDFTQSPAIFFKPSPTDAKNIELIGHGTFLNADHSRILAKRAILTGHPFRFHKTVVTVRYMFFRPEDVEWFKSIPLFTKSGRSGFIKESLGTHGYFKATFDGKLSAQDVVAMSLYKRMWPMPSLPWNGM

[3] = molecular target: T2, C-terminally TAP-tagged Tsr1 (S. cerevisiae); experiment: cryo-EM structure; pre-40S particles from rps20Δloop cells purified via Tsr1-TAP (lysis buffer with 5 mM MgCl2) and a 10–30% sucrose gradient; single particle analysis, classes C1-S20Δloop (3.47 Å) and C2-S20Δloop (3.79 Å); the partners stand in one ribonucleoprotein particle
[4] = molecular target: T3, Hrr25(1–394) fused to the Gal4 DNA-binding domain (S. cerevisiae) (UniProt P29295); experiment: two-hybrid; baits fused to the GAL4 DNA-binding domain, preys fused to the GAL4 activation domain, co-transformed into reporter strain PJ69-4A; ten-fold serial dilutions spotted on SDC-Trp-Leu, SDC-Trp-Leu-His (growth: weak interaction) and SDC-Trp-Leu-Ade (growth: strong interaction)
T3 sequence: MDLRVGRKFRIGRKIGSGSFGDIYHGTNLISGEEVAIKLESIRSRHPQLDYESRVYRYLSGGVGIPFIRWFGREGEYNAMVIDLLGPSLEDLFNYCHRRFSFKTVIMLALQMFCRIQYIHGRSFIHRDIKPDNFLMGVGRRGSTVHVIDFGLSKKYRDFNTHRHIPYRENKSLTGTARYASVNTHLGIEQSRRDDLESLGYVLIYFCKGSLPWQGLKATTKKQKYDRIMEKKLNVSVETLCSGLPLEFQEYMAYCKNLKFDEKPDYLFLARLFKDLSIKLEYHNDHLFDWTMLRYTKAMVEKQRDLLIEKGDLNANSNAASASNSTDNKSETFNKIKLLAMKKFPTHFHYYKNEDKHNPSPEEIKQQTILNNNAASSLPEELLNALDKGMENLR

B1: Ltv1 fragment aa 333–412 fused to the Gal4 activation domain (domain or fragment, UniProt P34078 333-412)
chain: GAMSDVSGFSMSSSAIARTETMTVLDDQYDQIINGYENYEEELEEDEEQNYQPFDMSAERSDFESMLDDFLDNYELESGG
- binding [1]: binds

B2: Ltv1 (wild type, in yeast cells) (protein, UniProt P34078 1-463)
chain: MSKKFSSKNSQRYVVVHRPHDDPSFYDTDASAHVLVPVSNPNKTSPEADLRKKDVSSTKPKGRRAHVGEAALYGINFDDSEYDYTQHLKPIGLDPENSIFIASKGNEQKVEKKNIEDLFIEPKYRRDEIEKDDALPVFQRGMAKPEYLLHQQDTTDEIRGFKPDMNPALREVLEALEDEAYVVNDDVVVEDISKKTQLQGDNYGEEEKEDDIFAQLLGSGEAKDEDEFEDEFDEWDIDNVENFEDENYVKEMAQFDNIENLEDLENIDYQADVRRFQKDNSILEKHNSDDEFSNAGLDSVNPSEEEDVLGELPSIQDKSKTGKKKRKSRQKKGAMSDVSGFSMSSSAIARTETMTVLDDQYDQIINGYENYEEELEEDEEQNYQPFDMSAERSDFESMLDDFLDNYELESGGRKLAKKDKEIERLKEAADEVSKGKLSQRRNRERQEKKKLEKVTNTLSSLKF
- binding [2]: binds

B3: Ltv1(S336/S339/S342>A) phosphomutant (protein, UniProt P34078 1-463)
chain: MSKKFSSKNSQRYVVVHRPHDDPSFYDTDASAHVLVPVSNPNKTSPEADLRKKDVSSTKPKGRRAHVGEAALYGINFDDSEYDYTQHLKPIGLDPENSIFIASKGNEQKVEKKNIEDLFIEPKYRRDEIEKDDALPVFQRGMAKPEYLLHQQDTTDEIRGFKPDMNPALREVLEALEDEAYVVNDDVVVEDISKKTQLQGDNYGEEEKEDDIFAQLLGSGEAKDEDEFEDEFDEWDIDNVENFEDENYVKEMAQFDNIENLEDLENIDYQADVRRFQKDNSILEKHNSDDEFSNAGLDSVNPSEEEDVLGELPSIQDKSKTGKKKRKSRQKKGAMADVAGFAMSSSAIARTETMTVLDDQYDQIINGYENYEEELEEDEEQNYQPFDMSAERSDFESMLDDFLDNYELESGGRKLAKKDKEIERLKEAADEVSKGKLSQRRNRERQEKKKLEKVTNTLSSLKF
- binding [2]: binds

B4: N-terminally HA-tagged Rps20Δloop (protein, UniProt P38701)
chain: MSDFQKEKVEEQEQQQQQIIKIRITLTSTKVKQLENVSSNIVKNAEQHNLVKKGPVRLPTKVLKISTWETYEMRIHKRYIDLEAPVQIVKRITQITIEPGVDVEVVVASN
- binding [2]: binds

B5: N-terminally HA-tagged Rps20.R68/K69>E (protein, UniProt P38701 1-121)
chain: MSDFQKEKVEEQEQQQQQIIKIRITLTSTKVKQLENVSSNIVKNAEQHNLVKKGPVRLPTKVLKISTEETPNGEGSKTWETYEMRIHKRYIDLEAPVQIVKRITQITIEPGVDVEVVVASN
- binding [2]: binds

B6: N-terminally HA-tagged Rps20.D113/E115>K (protein, UniProt P38701 1-121)
chain: MSDFQKEKVEEQEQQQQQIIKIRITLTSTKVKQLENVSSNIVKNAEQHNLVKKGPVRLPTKVLKISTRKTPNGEGSKTWETYEMRIHKRYIDLEAPVQIVKRITQITIEPGVKVKVVVASN
- binding [2]: binds

B7: Rps20Δloop (in the pre-40S particles used for cryo-EM) (protein, UniProt P38701)
chain: MSDFQKEKVEEQEQQQQQIIKIRITLTSTKVKQLENVSSNIVKNAEQHNLVKKGPVRLPTKVLKISTWETYEMRIHKRYIDLEAPVQIVKRITQITIEPGVDVEVVVASN
- binding [3]: binds

B8: Enp1 (endogenous) (protein, UniProt P38333 1-483)
chain: MARASSTKARKQRHDPLLKDLDAAQGTLKKINKKKLAQNDAANHDAANEEDGYIDSKASRKILQLAKEQQDEIEGEELAESERNKQFEARFTTMSYDDEDEDEDEDEEAFGEDISDFEPEGDYKEEEEIVEIDEEDAAMFEQYFKKSDDFNSLSGSYNLADKIMASIREKESQVEDMQDDEPLANEQNTSRGNISSGLKSGEGVALPEKVIKAYTTVGSILKTWTHGKLPKLFKVIPSLRNWQDVIYVTNPEEWSPHVVYEATKLFVSNLTAKESQKFINLILLERFRDNIETSEDHSLNYHIYRAVKKSLYKPSAFFKGFLFPLVETGCNVREATIAGSVLAKVSVPALHSSAALSYLLRLPFSPPTTVFIKILLDKKYALPYQTVDDCVYYFMRFRILDDGSNGEDATRVLPVIWHKAFLTFAQRYKNDITQDQRDFLLETVRQRGHKDIGPEIRRELLAGASREFVDPQEANDDLMIDVN
- binding [3]: binds

B9: Asc1 (endogenous) (protein, UniProt P38011 1-319)
chain: MASNEVLVLRGTLEGHNGWVTSLATSAGQPNLLLSASRDKTLISWKLTGDDQKFGVPVRSFKGHSHIVQDCTLTADGAYALSASWDKTLRLWDVATGETYQRFVGHKSDVMSVDIDKKASMIISGSRDKTIKVWTIKGQCLATLLGHNDWVSQVRVVPNEKADDDSVTIISAGNDKMVKAWNLNQFQIEADFIGHNSNINTLTASPDGTLIASAGKDGEIMLWNLAAKKAMYTLSAQDEVFSLAFSPNRYWLAAATATGIKVFSLDPQYLVDDLRPEFAGYSKAAEPHAVSLAWSADGQTLFAGYTDNVIRVWQVMTAN
- binding [3]: binds

B10: Ltv1.S6>A fused to the Gal4 activation domain (protein, UniProt P34078 1-463)
chain: MSKKFSSKNSQRYVVVHRPHDDPSFYDTDASAHVLVPVSNPNKTSPEADLRKKDVSSTKPKGRRAHVGEAALYGINFDDSEYDYTQHLKPIGLDPENSIFIASKGNEQKVEKKNIEDLFIEPKYRRDEIEKDDALPVFQRGMAKPEYLLHQQDTTDEIRGFKPDMNPALREVLEALEDEAYVVNDDVVVEDISKKTQLQGDNYGEEEKEDDIFAQLLGSGEAKDEDEFEDEFDEWDIDNVENFEDENYVKEMAQFDNIENLEDLENIDYQADVRRFQKDNSILEKHNSDDEFSNAGLDSVNPSEEEDVLGELPSIQDKSKTGKKKRKSRQKKGAMADVAGFAMAAAAIARTETMTVLDDQYDQIINGYENYEEELEEDEEQNYQPFDMSAERSDFESMLDDFLDNYELESGGRKLAKKDKEIERLKEAADEVSKGKLSQRRNRERQEKKKLEKVTNTLSSLKF
- binding [1]: binds
- binding [4]: binds

B11: Ltv1.S6>E fused to the Gal4 activation domain (protein, UniProt P34078 1-463)
chain: MSKKFSSKNSQRYVVVHRPHDDPSFYDTDASAHVLVPVSNPNKTSPEADLRKKDVSSTKPKGRRAHVGEAALYGINFDDSEYDYTQHLKPIGLDPENSIFIASKGNEQKVEKKNIEDLFIEPKYRRDEIEKDDALPVFQRGMAKPEYLLHQQDTTDEIRGFKPDMNPALREVLEALEDEAYVVNDDVVVEDISKKTQLQGDNYGEEEKEDDIFAQLLGSGEAKDEDEFEDEFDEWDIDNVENFEDENYVKEMAQFDNIENLEDLENIDYQADVRRFQKDNSILEKHNSDDEFSNAGLDSVNPSEEEDVLGELPSIQDKSKTGKKKRKSRQKKGAMEDVEGFEMEEEAIARTETMTVLDDQYDQIINGYENYEEELEEDEEQNYQPFDMSAERSDFESMLDDFLDNYELESGGRKLAKKDKEIERLKEAADEVSKGKLSQRRNRERQEKKKLEKVTNTLSSLKF
- binding [1]: binds
- binding [4]: binds

B12: Ltv1 fragment aa 160–296 fused to the Gal4 activation domain (domain or fragment, UniProt P34078 160-296)
chain: GFKPDMNPALREVLEALEDEAYVVNDDVVVEDISKKTQLQGDNYGEEEKEDDIFAQLLGSGEAKDEDEFEDEFDEWDIDNVENFEDENYVKEMAQFDNIENLEDLENIDYQADVRRFQKDNSILEKHNSDDEFSNAG
- binding [1]: binds
